System: KK-Ay mice
Experiment: Mouse trial, KK-Ay diabetes and obesity model mice fed with high-fat diet
Format: in vivo
Conditions: i.p. daily 14 days, ivermectin/derivatives 1.3 mg/kg, GW4064 30 mg/kg
Source text: In order to detect the efficacy of abamectin/avermectin, ivermectin and the derivative doramectin in the body of a diabetes and obesity mouse model, we choose diabetes and obesity mouse model mice, KK-Ay mice, as the experimental subject.

Row | SMILES | food intake
1 | CO[C@H]1C[C@H](O[C@H]2[C@H](C)O[C@@H](O[C@@H]3/C(C)=C/C[C@@H]4C[C@@H](C[C@]5(C=C[C@H](C)[C@@H](C6CCCCC6)O5)O4)OC(=O)[C@@H]4C=C(C)[C@@H](O)[C@H]5OC/C(=C\C=C\[C@@H]3C)[C@]54O)C[C@@H]2OC)O[C@@H](C)[C@@H]1O [doramectin] | not affected
2 | CCC(C)[C@H]1O[C@]2(C=C[C@@H]1C)C[C@@H]1C[C@@H](C/C=C(\C)[C@@H](O[C@H]3C[C@H](OC)[C@@H](O[C@H]4C[C@@H](OC)[C@H](O)[C@@H](C)O4)[C@H](C)O3)[C@@H](C)/C=C/C=C3\CO[C@@H]4[C@H](O)C(C)=C[C@@H](C(=O)O1)[C@]34O)O2 (stereo partly shown) [abamectin/avermectin] | not affected
3 | CC[C@H](C)[C@H]1O[C@]2(CC[C@@H]1C)C[C@@H]1C[C@@H](C/C=C(\C)C(O[C@H]3C[C@H](OC)C(O[C@H]4C[C@H](OC)[C@@H](O)[C@H](C)O4)[C@H](C)O3)[C@@H](C)/C=C/C=C3\CO[C@@H]4[C@H](O)C(C)=CC(C(=O)O1)[C@]34O)O2 (stereo partly shown) [ivermectin] | not affected
4 | CC(C)c1onc(-c2c(Cl)cccc2Cl)c1COc1ccc(/C=C/c2cccc(C(=O)O)c2)c(Cl)c1 [GW4064] | not affected
